Assay results as given in paper PMC5298958.
These are yes or no findings as the source states them, for the method shown.

Protein sequences, listed by entry. Tags and fused reporters are not part of them.
UniProt P03431: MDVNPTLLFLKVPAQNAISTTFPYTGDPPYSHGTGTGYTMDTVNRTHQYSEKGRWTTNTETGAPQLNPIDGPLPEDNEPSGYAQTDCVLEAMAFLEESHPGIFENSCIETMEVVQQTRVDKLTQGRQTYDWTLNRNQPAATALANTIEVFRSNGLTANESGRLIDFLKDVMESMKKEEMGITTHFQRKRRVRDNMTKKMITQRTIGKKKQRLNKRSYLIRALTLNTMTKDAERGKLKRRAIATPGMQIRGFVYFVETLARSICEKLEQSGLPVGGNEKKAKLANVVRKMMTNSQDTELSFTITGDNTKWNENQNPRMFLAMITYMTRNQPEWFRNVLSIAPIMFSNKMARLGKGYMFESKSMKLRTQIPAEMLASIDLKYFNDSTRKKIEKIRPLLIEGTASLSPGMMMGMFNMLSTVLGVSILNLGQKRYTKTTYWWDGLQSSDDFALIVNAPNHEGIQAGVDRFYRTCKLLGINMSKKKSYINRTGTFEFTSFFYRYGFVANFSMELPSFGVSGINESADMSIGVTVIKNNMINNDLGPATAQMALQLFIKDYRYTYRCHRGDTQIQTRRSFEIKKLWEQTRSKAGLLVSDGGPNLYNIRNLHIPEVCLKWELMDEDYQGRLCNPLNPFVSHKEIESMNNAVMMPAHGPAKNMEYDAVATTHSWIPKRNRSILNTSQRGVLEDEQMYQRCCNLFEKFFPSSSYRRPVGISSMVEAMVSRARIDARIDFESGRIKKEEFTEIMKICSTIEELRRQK

What was measured:
Experiment in all cases: two-hybrid
[1] = target: Influenza virus RdRp PA subunit fragment PA (347–452) (influenza virus A/PR/8/34) (UniProt P03433)
[2] = target: Influenza virus RdRp PA subunit fragment PA (453–638) (influenza virus A/PR/8/34) (UniProt P03433)
[3] = target: Influenza virus RNA-dependent RNA polymerase PB1 subunit (influenza virus A/PR/8/34) (UniProt P03431)

| Substance | binding [1] | binding [2] | binding [3] |
| --- | --- | --- | --- |
| Pyruvate kinase M2 fragment PKM (414–531) (from UniProt P14618 414-531) (domain or fragment) | no binding | no binding |  |
| Pyruvate kinase M2 (from UniProt P14618 1-531) | no binding | no binding | no binding |
